Source: PubChem BioAssay AID1508588 (Peter MacCallum Cancer Centre, 2020)
Assay: 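Knock-downs boosting vemurafenib effects on melanoma cell growth or lactate release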 (primary screen). Cells: human WM266.4 melanoma cells (BRAF V600 mutant). Reagent: siRNA pool against human genes, 40 nM. Timing: 96 h from transfection to read-out. Conditions: vemurafenib 300 nM (about IC25), added 48 h after transfection, for 48 h; comparison arm got DMSO vehicle only. Measurement: 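Cell gain (DAPI nuclei at end minus before drug, mean of two replicates) and medium lactate by absorbance per cell, both as ratio to non-targeting siRNA, also grouped into fold-change classes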. Scale: cell gain with vemurafenib: higher = more cell gain than with non-targeting siRNA; lactate per cell with vemurafenib: higher = more lactate made per cell. Hit rule: 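a knock-down counts as enhancing when its fold-change classes with vehicle and with vemurafenib, taken together, show a stronger drug effect on cell gain or lactate per cell; exact class pairs not stated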. Meaning of the calls: active = enhances vemurafenib effect; inactive = no enhancement seen.
In all, the deposit lists about 18,000 reagents; shown is a random part of them. 790 of them (4.4%) were called active. 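Calls rest on a combination of fold-change classes in drug and vehicle arms, not all shown here.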 Reagents against one gene are numbered here. Some reagents were tested in more than one well and are listed for each.

SLC46A2 showed cell gain with vemurafenib 0.39; lactate per cell with vemurafenib 0.36; inactive.
With knock-down of HDX (highly divergent homeobox), the record shows cell gain with vemurafenib 0.61; lactate per cell with vemurafenib 0.85; inactive.
After knock-down of EPB41L5 (erythrocyte membrane protein band 4.1 like 5), the record shows cell gain with vemurafenib 0.83; lactate per cell with vemurafenib 0.88; inactive.
Depletion of DNAJC7 (DnaJ heat shock protein family (Hsp40) member C7) gave: cell gain with vemurafenib 0.98; lactate per cell with vemurafenib 0.46; inactive.
SSU72 (SSU72 homolog, RNA polymerase II CTD phosphatase) gave cell gain with vemurafenib 0.67; lactate per cell with vemurafenib 1.45; inactive.
PCDHA1 (protocadherin alpha 1) scored cell gain with vemurafenib 0.47; lactate per cell with vemurafenib 1; inactive.
Knock-down of ALOX5 (arachidonate 5-lipoxygenase) gave: cell gain with vemurafenib 0.67; lactate per cell with vemurafenib 0.57; inactive.
Depletion of SLC18A1 resulted in: cell gain with vemurafenib 0.61; lactate per cell with vemurafenib 1.19; inactive.
KCNJ3 (potassium inwardly rectifying channel subfamily J member 3) gave cell gain with vemurafenib 0.73; lactate per cell with vemurafenib 0.6; inactive.
With knock-down of CLK2 (CDC like kinase 2) the results were cell gain with vemurafenib 0.49; lactate per cell with vemurafenib 0.73; inactive.
Against PPP1R1B (protein phosphatase 1 regulatory inhibitor subunit 1B) the deposit lists cell gain with vemurafenib 0.91; lactate per cell with vemurafenib 0.51; inactive.
Knock-down of SLC60A1 gave: cell gain with vemurafenib 0.53; lactate per cell with vemurafenib 1.16; inactive.
With knock-down of ZSCAN22 (zinc finger and SCAN domain containing 22) the results were cell gain with vemurafenib 0.28; lactate per cell with vemurafenib 1.27; inactive.
ARID1A (AT-rich interaction domain 1A) showed cell gain with vemurafenib 0.66; lactate per cell with vemurafenib 0.62; inactive.
Silencing of CITED4 (Cbp/p300 interacting transactivator with ED-rich tail 4) came out at: cell gain with vemurafenib 1.14; lactate per cell with vemurafenib 1.14; inactive.
Against SLC25A3, the entry reads cell gain with vemurafenib 0.44; lactate per cell with vemurafenib 1.54; inactive.
With knock-down of CEP63 (centrosomal protein 63) the results were cell gain with vemurafenib 0.56; lactate per cell with vemurafenib 0.84; inactive.
NEURL2 (neuralized E3 ubiquitin protein ligase 2) showed cell gain with vemurafenib 0.07; lactate per cell with vemurafenib 0.75; inactive.
For MISO1 (mitochondrial inner membrane subdomain organizer 1), the entry reads cell gain with vemurafenib 1.04; lactate per cell with vemurafenib 0.96; inactive.
Silencing of RPA1 (replication protein A1) resulted in: cell gain with vemurafenib -0.1; lactate per cell with vemurafenib 2.04; inactive.
ITGAD (integrin subunit alpha D) scored cell gain with vemurafenib 0.49; lactate per cell with vemurafenib 1.41; inactive.
With knock-down of HTR3A (5-hydroxytryptamine receptor 3A), the screen gave cell gain with vemurafenib 0.27; lactate per cell with vemurafenib 1.2; inactive.
For HTR3A (5-hydroxytryptamine receptor 3A), the values are cell gain with vemurafenib 0.35; lactate per cell with vemurafenib 1.61; inactive.
Depletion of MEGF11 (multiple EGF like domains 11) came out at: cell gain with vemurafenib 0.59; lactate per cell with vemurafenib 1.38; inactive.
After knock-down of ECHS1 (enoyl-CoA hydratase, short chain 1), the screen gave cell gain with vemurafenib 0.77; lactate per cell with vemurafenib 0.9; inactive.
Knock-down of DTX3 (deltex E3 ubiquitin ligase 3) gave: cell gain with vemurafenib 0.98; lactate per cell with vemurafenib 0.9; inactive.
ONECUT3 (one cut homeobox 3) scored cell gain with vemurafenib 0.11; lactate per cell with vemurafenib 1.52; inactive.
After knock-down of FAM111A (FAM111 trypsin like peptidase A), the screen gave cell gain with vemurafenib 0.23; lactate per cell with vemurafenib 1.65; inactive.
EIF2B2 (eukaryotic translation initiation factor 2B subunit beta) scored cell gain with vemurafenib 0.64; lactate per cell with vemurafenib 0.58; inactive.
GJA5 (gap junction protein alpha 5) showed cell gain with vemurafenib 0.3; lactate per cell with vemurafenib 0.84; inactive.
SLC25A17 showed cell gain with vemurafenib 0.28; lactate per cell with vemurafenib 1.17; inactive.
With knock-down of F5 (coagulation factor V), the screen gave cell gain with vemurafenib 0.65; lactate per cell with vemurafenib 1.12; inactive.
With knock-down of SUN5 (Sad1 and UNC84 domain containing 5), the record shows cell gain with vemurafenib 0.38; lactate per cell with vemurafenib 1.36; inactive.
Knock-down of RRN3 (RNA polymerase I transcription factor RRN3) resulted in: cell gain with vemurafenib 0.74; lactate per cell with vemurafenib 0.8; inactive.
For PEX1 (peroxisomal biogenesis factor 1), the entry reads cell gain with vemurafenib 0.74; lactate per cell with vemurafenib 1.1; inactive.
Depletion of RPS21 (ribosomal protein S21) gave: cell gain with vemurafenib -0.11; lactate per cell with vemurafenib 1.78; inactive.
After knock-down of YIPF3 (Yip1 domain family member 3) the results were cell gain with vemurafenib 0.46; lactate per cell with vemurafenib 1.07; inactive.
Against METRNL (meteorin like, glial cell differentiation regulator), the values are cell gain with vemurafenib 0.21; lactate per cell with vemurafenib 0.88; inactive.
After knock-down of RBPJ, the record shows cell gain with vemurafenib 0.28; lactate per cell with vemurafenib 1.83; inactive.
Depletion of ESRP2 (epithelial splicing regulatory protein 2) gave: cell gain with vemurafenib 0.09; lactate per cell with vemurafenib 0.71; inactive.
Knock-down of AGTPBP1 (ATP/GTP binding carboxypeptidase 1) gave: cell gain with vemurafenib 0.85; lactate per cell with vemurafenib 1.1; inactive.
SLCO4C1 scored cell gain with vemurafenib 0.3; lactate per cell with vemurafenib 0.66; inactive.
Against AKAP9 (A-kinase anchoring protein 9), the values are cell gain with vemurafenib 0.57; lactate per cell with vemurafenib 0.86; inactive.
After knock-down of PPP1R15B (protein phosphatase 1 regulatory subunit 15B), the record shows cell gain with vemurafenib 0.48; lactate per cell with vemurafenib 0.62; inactive.
Depletion of NPR3 (natriuretic peptide receptor 3) #1 gave: cell gain with vemurafenib 0.95; lactate per cell with vemurafenib 0.66; inactive.
Knock-down of NPR3 (natriuretic peptide receptor 3) #2 came out at: cell gain with vemurafenib 0.51; lactate per cell with vemurafenib 0.94; inactive.
Against WDR82 (WD repeat domain 82) the deposit lists cell gain with vemurafenib 0.65; lactate per cell with vemurafenib 1.12; inactive.
Depletion of KMO (kynurenine 3-monooxygenase) came out at: cell gain with vemurafenib 0.25; lactate per cell with vemurafenib 1.44; inactive.
After knock-down of DHRS1 (dehydrogenase/reductase 1), the record shows cell gain with vemurafenib 0.18; lactate per cell with vemurafenib 3.01; inactive.
ZBED10P (zinc finger BED-type containing 10, pseudogene) gave cell gain with vemurafenib 0.28; lactate per cell with vemurafenib 0.82; inactive.
After knock-down of CFI (complement factor I) the results were cell gain with vemurafenib 0.26; lactate per cell with vemurafenib 2.16; inactive.
ELP4 (elongator acetyltransferase complex subunit 4) showed cell gain with vemurafenib 0.75; lactate per cell with vemurafenib 1.01; inactive.

A portion taken from the entries so far:
SLC25A3: cell gain with vemurafenib = 0.44; lactate per cell with vemurafenib = 1.54; call = inactive
CEP63 (centrosomal protein 63): cell gain with vemurafenib = 0.56; lactate per cell with vemurafenib = 0.84; call = inactive
NEURL2 (neuralized E3 ubiquitin protein ligase 2): cell gain with vemurafenib = 0.07; lactate per cell with vemurafenib = 0.75; call = inactive
